Measurements from paper PMC9631887 (ACS Omega, 2022).

How the values were obtained:
[1] = PAMPA-GIT
[2] = PAMPA-BBB

experimental fraction absorption [1]: 15.81%
Structure (SMILES): CC(C)NCC(O)COc1ccc(CC(N)=O)cc1 (centres unmarked) [atenolol]
classification [2]: BBB– (Pe values <1.57 were classified as nonpermeable (BBB−))
